This note sets out measurements from paper PMC12847741.

The chains behind the UniProt entries cited, without tags or fusion partners.
UniProt Q14247: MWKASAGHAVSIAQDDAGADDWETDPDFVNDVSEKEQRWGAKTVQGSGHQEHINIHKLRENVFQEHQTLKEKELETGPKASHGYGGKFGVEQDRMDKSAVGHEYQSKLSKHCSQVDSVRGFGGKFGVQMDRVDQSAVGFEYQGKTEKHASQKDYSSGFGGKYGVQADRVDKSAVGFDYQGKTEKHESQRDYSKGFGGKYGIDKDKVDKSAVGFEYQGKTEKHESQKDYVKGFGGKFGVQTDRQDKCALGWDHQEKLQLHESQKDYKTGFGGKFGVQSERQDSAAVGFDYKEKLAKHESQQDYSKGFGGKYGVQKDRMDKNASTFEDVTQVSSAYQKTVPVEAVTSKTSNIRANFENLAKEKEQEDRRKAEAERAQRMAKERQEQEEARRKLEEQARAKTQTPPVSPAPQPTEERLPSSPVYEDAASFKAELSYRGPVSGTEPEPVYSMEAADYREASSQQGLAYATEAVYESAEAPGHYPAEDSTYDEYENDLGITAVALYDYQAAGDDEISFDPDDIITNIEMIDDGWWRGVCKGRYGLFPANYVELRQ
UniProt P04792: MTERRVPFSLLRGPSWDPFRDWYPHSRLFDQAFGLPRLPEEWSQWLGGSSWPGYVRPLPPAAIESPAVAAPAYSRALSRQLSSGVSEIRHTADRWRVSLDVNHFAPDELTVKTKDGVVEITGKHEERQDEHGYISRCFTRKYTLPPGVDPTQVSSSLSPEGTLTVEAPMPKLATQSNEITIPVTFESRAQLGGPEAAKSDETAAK

Results are given in words; binding and its absence hold for the method and conditions named. Binding seen in cells or lysates may run through a third protein. Here binding means that the protein was enriched with, or labelled near, the bait; the list need not be complete. Sequences can lack the tags named with a protein.

The chains are these.
T1: Flag-tagged IFIT3 (interferon-induced protein with tetratricopeptide repeats 3), full-length (human) (UniProt O14879)
T1 sequence: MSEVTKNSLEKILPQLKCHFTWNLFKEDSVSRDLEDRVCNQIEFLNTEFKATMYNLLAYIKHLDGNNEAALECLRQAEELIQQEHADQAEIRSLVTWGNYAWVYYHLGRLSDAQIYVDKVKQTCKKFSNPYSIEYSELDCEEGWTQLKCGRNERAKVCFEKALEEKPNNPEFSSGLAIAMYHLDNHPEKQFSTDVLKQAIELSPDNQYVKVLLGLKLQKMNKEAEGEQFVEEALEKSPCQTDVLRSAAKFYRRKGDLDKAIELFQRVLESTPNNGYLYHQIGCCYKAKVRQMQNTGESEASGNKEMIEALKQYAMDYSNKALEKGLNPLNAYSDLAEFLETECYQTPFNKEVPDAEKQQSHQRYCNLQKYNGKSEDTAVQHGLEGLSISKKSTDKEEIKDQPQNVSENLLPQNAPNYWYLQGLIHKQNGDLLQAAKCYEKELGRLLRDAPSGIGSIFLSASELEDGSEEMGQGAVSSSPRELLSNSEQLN

B1: LIM and SH3 protein 1 (LASP1), endogenous (protein, UniProt Q14847 1-261)
chain: MNPNCARCGKIVYPTEKVNCLDKFWHKACFHCETCKMTLNMKNYKGYEKKPYCNAHYPKQSFTMVADTPENLRLKQQSELQSQVRYKEEFEKNKGKGFSVVADTPELQRIKKTQDQISNIKYHEEFEKSRMGPSGGEGMEPERRDSQDGSSYRRPLEQQQPHHIPTSAPVYQQPQQQPVAQSYGGYKEPAAPVSIQRSAPGGGGKRYRAVYDYSAADEDEVSFQDGDTIVNVQQIDDGWMYGTVERTGDTGMLPANYVEAI
B2: ANXA1 (protein, UniProt P04083 1-346)
chain: MAMVSEFLKQAWFIENEEQEYVQTVKSSKGGPGSAVSPYPTFNPSSDVAALHKAIMVKGVDEATIIDILTKRNNAQRQQIKAAYLQETGKPLDETLKKALTGHLEEVVLALLKTPAQFDADELRAAMKGLGTDEDTLIEILASRTNKEIRDINRVYREELKRDLAKDITSDTSGDFRNALLSLAKGDRSEDFGVNEDLADSDARALYEAGERRKGTDVNVFNTILTTRSYPQLRRVFQKYTKYSKHDMNKVLDLELKGDIEKCLTAIVKCATSKPAFFAEKLHQAMKGVGTRHKALIRIMVSRSEIDMNDIKAFYQKMYGISLCQAILDETKGDYEKILVALCGGN

In this assay the target is T1, Flag-tagged IFIT3 (interferon-induced protein with tetratricopeptide repeats 3), full-length (human). In words: affinity purification with mass spectrometry; cells lysed in IP lysis buffer 48 h after plasmid transfection; protein A/G magnetic beads with primary antibody or control IgG (4 °C, 2 h), then protein extract for 2 h; PBST washes; SDS-PAGE (silver stain) and MS; cell line not stated.
As to CTTN (from UniProt Q14247 1-550), the binding entry is given as “binds”.

For the molecule HSPB1 (from UniProt P04792 1-205), the binding result was “binds”.

Take B1: the binding result is “binds”.

On to B2, for which the binding entry was “binds”.
